Data from PubChem BioAssay.
Some of the results follow. Where no call is shown, the source marks the result inconclusive. For some assays here: Entries with a potency or affinity are not part of this list. Residues, ends and D or L forms follow the SMILES beside them.

assay: AR112GFP polyglutamine androgen receptor turnover promoters – cell-based, GFP fluorescence (AID 1607); details: cells expressing AR112-GFP, stronger effect = lower value

SMILES	normalized GFP signal
CCCCCCCCCCCCCCCCCC(=O)OC(CC(=O)O)C[N+](C)(C)C (configuration not stated)	1
CC(CCc1ccccc1)NCC(O)c1ccc(O)c(C(N)=O)c1 (configuration not stated)	0.947
CO/N=C(\C(=O)NC1C(=O)N2C(C(=O)O)=C(CSc3nc(=O)c(O)nn3C)CS[C@H]12)c1csc(N)n1 (some centres not stated)	0.948
CC(C)=CCC/C(C)=C/CO	0.975
NC(=NCc1ccccc1)NC(=O)c1nc(Cl)c(N)nc1N	0.995
NCCCCC(N)C(=O)NC(Cc1c[nH]c2ccccc12)C(=O)NC(CCCCN)C(=O)O (stereo not drawn) (H-Lys-Trp-Lys-OH; configuration not given here)	1.05
C=C1C(=O)OC2C1CCC1(C)CCC=C(C)C21 (configuration not stated)	0.666
NC(=O)N/N=C/c1ccc([N+](=O)[O-])o1	1.07
Nc1ccc(S(=O)(=O)Nc2nccs2)cc1	0.969
CC(C)CC1NC(=O)CNC1=O (configuration not stated)	1.05
CO/N=C(/C(=O)NC1C(=O)N2C(C(=O)O)=C(COC(N)=O)CSC12)c1ccco1 (configuration not stated)	1.1
CCCCC[C@H](CC(=O)NO)C(=O)N[C@H](C(=O)N1CCC[C@H]1CO)C(C)C	1.01
O=C(O)c1cc2cc(Cc3cccnc3)ccc2o1	1.01
O=C(c1ccccc1)c1ccc2n1CCC2C(=O)O (configuration not stated)	1.09
O=C1C=CC(=C(c2ccc(O)cc2)c2ccc(O)cc2)C=C1	0.813
CC(C)COCC(CN(Cc1ccccc1)c1ccccc1)N1CCCC1 (configuration not stated)	0.719
CC(C)=CCC1=C(O)c2ccccc2C(=O)C1=O	0.941
O=c1cc(-c2ccc(O)cc2)oc2cc(O)cc(O)c12	0.931
CC(=O)OCC(=O)[C@@]1(O)[C@H](C)CC2C3CCC4=CC(=O)C=C[C@]4(C)[C@@]3(F)[C@@H](O)C[C@@]21C (some centres not stated)	1.29
CC(NC(=O)C(NC(=O)OCc1ccccc1)C(C)C)C(=O)NC(CC(=O)O)C(=O)OC(F)F (configuration not stated)	0.966
CC[C@@H](CO)NCCN[C@@H](CC)CO	1.08

assay: PubChem AID 1608; details: PC12 mutant huntingtin toxicity, LDH release

SMILES	protection score
C[C@H](CS)C(=O)N1CCC[C@H]1C(=O)O	0.927
Cc1cc(C(C)(C)CC(C)(C)C)ccc1OCCOCC[N+](C)(C)Cc1ccccc1	0.916
Cn1nnnc1SCC1=C(C(=O)O)N2C(=O)C(NC(=O)C(OC=O)c3ccccc3)C2SC1 (configuration not stated)	0.888
CCCC(CCC)C(=O)O	0.92
CC(CCc1ccccc1)NCC(O)c1ccc(O)c(C(N)=O)c1 (configuration not stated)	0.867
CO/N=C(\C(=O)NC1C(=O)N2C(C(=O)O)=C(CSc3nc(=O)c(O)nn3C)CS[C@H]12)c1csc(N)n1 (some centres not stated)	0.974
CC(C)=CCC/C(C)=C/CO	0.915
NCCCCC(N)C(=O)NC(Cc1c[nH]c2ccccc12)C(=O)NC(CCCCN)C(=O)O (stereo not drawn) (H-Lys-Trp-Lys-OH; configuration not given here)	1.05
Nc1ccc(S(=O)(=O)Nc2nccs2)cc1	1.18
CC(C)CC1NC(=O)CNC1=O (configuration not stated)	0.867
CO/N=C(/C(=O)NC1C(=O)N2C(C(=O)O)=C(COC(N)=O)CSC12)c1ccco1 (configuration not stated)	1.09
CC(C)COCC(CN(Cc1ccccc1)c1ccccc1)N1CCCC1 (configuration not stated)	0.991
CC[C@@H](CO)NCCN[C@@H](CC)CO	1.07

Ordered by molar mass (falling): some entries from above
SMILES	protection score
NCCCCC(N)C(=O)NC(Cc1c[nH]c2ccccc12)C(=O)NC(CCCCN)C(=O)O (stereo not drawn) (H-Lys-Trp-Lys-OH; configuration not given here)	1.05
C[C@H](CS)C(=O)N1CCC[C@H]1C(=O)O	0.927
CC(C)CC1NC(=O)CNC1=O (configuration not stated)	0.867
CCCC(CCC)C(=O)O	0.92

assay: rescue of PC12 cells from polyQ htt toxicity – LDH release (AID 1610); details: PC12 mutant huntingtin toxicity; at 100 µM (top of the series)

SMILES	normalised LDH release, lower = protection
C[C@H](CS)C(=O)N1CCC[C@H]1C(=O)O	0.683
Cc1cc(C(C)(C)CC(C)(C)C)ccc1OCCOCC[N+](C)(C)Cc1ccccc1	0.877
Cn1nnnc1SCC1=C(C(=O)O)N2C(=O)C(NC(=O)C(OC=O)c3ccccc3)C2SC1 (configuration not stated)	0.807
CCCC(CCC)C(=O)O	0.741
CC(CCc1ccccc1)NCC(O)c1ccc(O)c(C(N)=O)c1 (configuration not stated)	0.645
CO/N=C(\C(=O)NC1C(=O)N2C(C(=O)O)=C(CSc3nc(=O)c(O)nn3C)CS[C@H]12)c1csc(N)n1 (some centres not stated)	0.564
CC(C)=CCC/C(C)=C/CO	0.678
NCCCCC(N)C(=O)NC(Cc1c[nH]c2ccccc12)C(=O)NC(CCCCN)C(=O)O (stereo not drawn) (H-Lys-Trp-Lys-OH; configuration not given here)	0.923
Nc1ccc(S(=O)(=O)Nc2nccs2)cc1	0.843
CC(C)CC1NC(=O)CNC1=O (configuration not stated)	0.592
CO/N=C(/C(=O)NC1C(=O)N2C(C(=O)O)=C(COC(N)=O)CSC12)c1ccco1 (configuration not stated)	0.914
CC(C)COCC(CN(Cc1ccccc1)c1ccccc1)N1CCCC1 (configuration not stated)	1.25
CC[C@@H](CO)NCCN[C@@H](CC)CO	0.921
